Measurements from the supplement of paper PMC3334620.
The full ranking holds about 33,000 sequences; the median of “E-score (-0.5 to 0.5)” is about -0.0014, and the highest 2% start at about 0.25. Some of the results follow.

Biological target: T1, Cad1 (UniProt P24813)
T1 sequence: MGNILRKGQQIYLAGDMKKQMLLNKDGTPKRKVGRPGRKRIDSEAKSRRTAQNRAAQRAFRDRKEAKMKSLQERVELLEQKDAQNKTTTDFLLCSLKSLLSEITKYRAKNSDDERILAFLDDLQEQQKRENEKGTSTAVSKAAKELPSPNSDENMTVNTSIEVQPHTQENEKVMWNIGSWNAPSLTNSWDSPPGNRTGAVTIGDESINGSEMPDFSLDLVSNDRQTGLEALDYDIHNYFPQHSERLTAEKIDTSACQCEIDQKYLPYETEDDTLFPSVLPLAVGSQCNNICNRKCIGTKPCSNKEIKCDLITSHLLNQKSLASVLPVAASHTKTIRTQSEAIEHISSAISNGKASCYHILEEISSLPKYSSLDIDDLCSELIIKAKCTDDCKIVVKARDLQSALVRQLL
Assay: PBM E-score (8-mer binding enrichment) (E-score (-0.5 to 0.5)); higher = stronger / more preferred TF binding
Details: protein concentration: 100 nM; construct: GST-full length
Summary of the method: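 Full-length yeast transcription factors or their DNA-binding domains, GST-tagged and expressed with PURExpress, were applied at about 100-200 nM to universal all-10-mer Agilent arrays. These arrays had been made double-stranded by primer extension on fresh or once-stripped slides. Detection used fluorescent anti-GST, normalisation used masliner, and E-scores for ungapped eight-base words pooled with reverse complements came from the Universal PBM Analysis Suite.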

| Sequence | PBM E-score |
| --- | --- |
| GGATCCCC | -0.247 |
| CTTGGCCC | -0.417 |
| GTGCTACA | -0.169 |
| GTTGCCCA | 0.188 |
| AGCTTGTG | 0.0925 |
| ACGTGGAA | 0.1 |
| CCTCTGGC | -0.0622 |
| AGGGAGAC | -0.212 |
| TTCGAAAA | 0.163 |
| AGGATGAG | -0.063 |
| ATTTAGCA | 0.128 |
| TAGCAGAA | 0.0503 |
| ACCAAGAA | 0.116 |
| CGCGAATC | 0.0895 |
| ATACTCCC | -0.0818 |
| AAGTAGTA | 0.141 |
| AACACTGA | 0.234 |
| CTATTGCC | -0.149 |
| GCAGAGCC | -0.203 |
| CGGCGTGC | -0.178 |
| GGGCTAAC | -0.113 |
| AACTCATC | 0.0929 |
| CCGAAACC | -0.11 |
| ACTCCATG | -0.123 |

| Sequence | PBM E-score |
| --- | --- |
| CACGCTAG | -0.0624 |
| CCGTTCAA | 0.0261 |
| AACGGAAG | 0.114 |
| GTAATCCA | 0.277 |
| AGAATCAA | 0.0466 |
| CTATCCAC | -0.0192 |
| AGCCCTAA | -0.0989 |
| ACACACGA | -0.0386 |
| CGACTATA | -0.0508 |
| ATACTGCA | 0.0912 |
| CGCCACTC | -0.0665 |
| CAGATCAG | 0.0663 |
| ACTGGATC | -0.0601 |
| CGTTCCTA | 0.00668 |
| AAATGAAT | -0.0684 |
| AGATAATA | -0.019 |
| AAAGCGCC | -0.0664 |
| GAGGTGCA | 0.0843 |
| AGAGAAAT | 0.0896 |
| AAACGTGG | -0.108 |
| AAGGCTCT | -0.237 |
| CACTCACC | -0.205 |
| AGAAGAAT | -0.0672 |
| AGTCCCCC | -0.437 |

Seven consecutive records already listed, for reference:

| Sequence | PBM E-score |
| --- | --- |
| CCGTTCAA | 0.0261 |
| AACGGAAG | 0.114 |
| GTAATCCA | 0.277 |
| AGAATCAA | 0.0466 |
| CTATCCAC | -0.0192 |
| AGCCCTAA | -0.0989 |
| ACACACGA | -0.0386 |

The list goes on:

| Sequence | PBM E-score |
| --- | --- |
| ATGTCCCC | -0.107 |
| CCTTTGGA | -0.166 |
| ATTACTTC | -0.0817 |
| CTTATATC | 0.0947 |
| AGGATAGA | -0.0415 |
| CCTAATCA | 0.115 |
| AGATCCCC | -0.176 |
| CTCTTAAA | 0.222 |
| ATGGCATA | 0.0437 |
| AGTCTCGG | -0.0898 |
| AGCCCATG | -0.00466 |
| ACGCTAAT | 0.0761 |
| CAGGACGG | -0.0398 |
| ACAGTGCT | 0.0829 |
| ATCTCAAT | -0.0587 |
| ACGAACTC | 0.192 |
| ATATGTCG | 0.0385 |
| ATTTAAAC | 0.109 |
| AGTCACTG | 0.0505 |
| GGCTGGAC | -0.232 |
| CTCCTTAA | -0.194 |
| TAACCTTA | -0.0788 |
| AATATACA | 0.0965 |
| GGTGGTGA | -0.0135 |

| Sequence | PBM E-score |
| --- | --- |
| CGTGTTCA | 0.112 |
| TTGGCAAA | 0.121 |
| ACCATGAT | -0.0821 |
| CTAGTCAA | -0.095 |
| GGGTAGAC | -0.191 |
| CGGCCAAG | -0.0515 |
| ATCTCACC | 0.0699 |
| ACATCCTC | -0.124 |
| ACCTTGAC | -0.0199 |
| CTCTTGCA | -0.0966 |
| TAATGGCA | 0.0744 |
| AGTCTCCA | -0.107 |
| CTCCGCGA | 0.113 |
| CGCTCGCC | 0.111 |
| CCGATGAG | 0.0417 |
| CCGAATCC | 0.115 |
| CCATTGCC | -0.0498 |
| GCTCAAGA | -0.255 |
| CTGTATTC | 0.112 |
| GGTGTGTA | -0.0108 |
| AAGCAATG | 0.129 |
| GCGACGAA | 0.0483 |
